Measured values from paper PMC6715699.
No constants are given. Whether binding was seen depends on the method and setting. For some assays here: Binding seen in cells or lysates may run through a third protein. Some binding calls cover weakened binding; strength is not graded here.

Sequences of proteins named here, by UniProt entry; tags and fusion partners are left off. A change or cut given only in a name is not applied to a line headed by its entry. A line that says so, or that is headed by a name, gives the form on record, which may keep a tag or linker. Residues count along the entry.
UniProt P12956: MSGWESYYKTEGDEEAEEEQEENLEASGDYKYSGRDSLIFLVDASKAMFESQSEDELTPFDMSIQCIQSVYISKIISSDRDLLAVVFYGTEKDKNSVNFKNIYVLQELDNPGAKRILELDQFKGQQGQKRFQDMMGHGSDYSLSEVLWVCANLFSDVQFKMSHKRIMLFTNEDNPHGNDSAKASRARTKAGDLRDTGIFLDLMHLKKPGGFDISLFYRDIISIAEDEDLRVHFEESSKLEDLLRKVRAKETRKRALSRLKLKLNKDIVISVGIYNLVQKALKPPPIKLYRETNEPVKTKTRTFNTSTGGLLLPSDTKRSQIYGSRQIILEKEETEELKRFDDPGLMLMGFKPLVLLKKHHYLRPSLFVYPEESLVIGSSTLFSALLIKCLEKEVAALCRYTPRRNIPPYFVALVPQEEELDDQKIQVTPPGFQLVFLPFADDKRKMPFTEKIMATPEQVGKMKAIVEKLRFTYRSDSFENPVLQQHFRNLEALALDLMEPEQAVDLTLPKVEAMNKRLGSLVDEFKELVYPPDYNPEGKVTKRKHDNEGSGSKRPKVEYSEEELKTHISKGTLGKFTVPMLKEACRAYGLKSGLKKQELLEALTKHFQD
MYC-tagged Ku70 1-573: residues 1-573 of P12956
MYC-tagged Ku70 257-609: residues 257-609 of P12956
MYC-tagged Ku70 464-609: residues 464-609 of P12956
UniProt Q06330: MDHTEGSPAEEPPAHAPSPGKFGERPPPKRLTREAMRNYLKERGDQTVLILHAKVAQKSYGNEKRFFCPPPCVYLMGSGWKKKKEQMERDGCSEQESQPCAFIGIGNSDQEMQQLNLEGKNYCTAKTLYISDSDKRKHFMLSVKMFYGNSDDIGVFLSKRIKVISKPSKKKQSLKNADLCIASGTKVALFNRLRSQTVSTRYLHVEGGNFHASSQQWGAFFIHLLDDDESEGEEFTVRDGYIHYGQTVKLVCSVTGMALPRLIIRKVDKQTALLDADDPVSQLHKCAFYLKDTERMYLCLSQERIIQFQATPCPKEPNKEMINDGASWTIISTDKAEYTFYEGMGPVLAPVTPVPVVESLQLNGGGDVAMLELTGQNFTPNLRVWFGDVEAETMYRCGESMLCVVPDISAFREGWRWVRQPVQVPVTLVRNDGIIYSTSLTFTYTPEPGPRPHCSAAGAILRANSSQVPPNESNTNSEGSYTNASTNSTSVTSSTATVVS
FLAG-tagged CSL BTD (166–334): residues 166-334 of Q06330
UniProt P13010: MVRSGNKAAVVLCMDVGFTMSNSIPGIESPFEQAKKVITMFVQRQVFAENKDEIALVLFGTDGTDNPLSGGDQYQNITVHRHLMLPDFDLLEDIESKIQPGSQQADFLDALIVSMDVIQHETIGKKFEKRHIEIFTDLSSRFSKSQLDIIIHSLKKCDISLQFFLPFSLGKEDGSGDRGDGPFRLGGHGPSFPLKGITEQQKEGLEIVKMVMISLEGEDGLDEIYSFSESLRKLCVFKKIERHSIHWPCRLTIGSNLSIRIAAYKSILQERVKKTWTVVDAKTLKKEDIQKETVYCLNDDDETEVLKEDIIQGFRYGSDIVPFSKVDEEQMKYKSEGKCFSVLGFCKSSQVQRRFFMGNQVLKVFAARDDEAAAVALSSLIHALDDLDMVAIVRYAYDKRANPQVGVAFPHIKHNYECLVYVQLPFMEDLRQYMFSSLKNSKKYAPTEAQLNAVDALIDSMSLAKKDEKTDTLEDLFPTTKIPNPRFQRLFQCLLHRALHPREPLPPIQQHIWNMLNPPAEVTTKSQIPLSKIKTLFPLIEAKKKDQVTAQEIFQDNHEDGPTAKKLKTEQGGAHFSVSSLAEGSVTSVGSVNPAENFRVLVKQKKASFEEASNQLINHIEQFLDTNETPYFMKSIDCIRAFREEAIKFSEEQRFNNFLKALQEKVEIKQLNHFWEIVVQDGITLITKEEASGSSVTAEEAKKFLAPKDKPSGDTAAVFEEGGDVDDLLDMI

Assays:
[1] = target: MYC-tagged Ku70 464-609 (human) (UniProt P12956); assay: co-IP; HEK293T cells expressing MYC-tagged Ku70 FL or truncations plus/minus FL CSL; anti-cMYC magnetic beads, immunoblotting
[2] = target: MYC-tagged Ku70 1-573 (human) (UniProt P12956); assay: as above
[3] = target: MYC-tagged Ku70 257-609 (human) (UniProt P12956); assay: as above
[4] = target: FLAG-tagged CSL F235R (human) (UniProt Q06330); assay: co-IP; HEK293T cells expressing FLAG-tagged CSL FL, BTD or point mutants plus/minus FL UPF1 or FL Ku70; anti-FLAG M2 magnetic beads, immunoblotting
[5] = target: FLAG-tagged CSL Q307R (human) (UniProt Q06330); assay: as above
[6] = target: FLAG-tagged full length (FL) CSL (human) (UniProt Q06330); assay: as above
[7] = target: purified recombinant CSL (UniProt Q06330); assay: MST; labelled CSL (RED-NHS) at 1 µM with two-fold dilutions of unlabeled UPF1 or Ku70 (9 µM to 0.27 nM); labeled UPF1 at 1 µM with unlabeled Ku70 (4 µM to 0.12 nM); standard MST buffer, room temperature 20 min; Monolith NT.115; both purified
[8] = target: CSL (RBP-Jκ), endogenous (human (endogenous in HDFs)) (UniProt Q06330); assay: co-IP; HDF lysates, anti-CSL antibodies or non-immune IgG, immunoblotting; endogenous proteins
[9] = target: CSL (RBP-Jκ), endogenous (human (endogenous in HDFs)) (UniProt Q06330); assay: proximity ligation; Duolink PLA kit on fixed HDFs; HDFs with silenced CSL as negative control
[10] = target: T1, UPF1 (Up-Frameshift Suppressor 1 Homolog), endogenous (human (endogenous in HDFs)) (UniProt Q92900); assay: co-IP; sequential: endogenous CSL immunoprecipitated from HDFs, the eluate immunoprecipitated with anti-UPF1 antibody or non-immune IgG; immunoblotting with CSL, UPF1, Ku70 and Ku80 antibodies
T1 sequence: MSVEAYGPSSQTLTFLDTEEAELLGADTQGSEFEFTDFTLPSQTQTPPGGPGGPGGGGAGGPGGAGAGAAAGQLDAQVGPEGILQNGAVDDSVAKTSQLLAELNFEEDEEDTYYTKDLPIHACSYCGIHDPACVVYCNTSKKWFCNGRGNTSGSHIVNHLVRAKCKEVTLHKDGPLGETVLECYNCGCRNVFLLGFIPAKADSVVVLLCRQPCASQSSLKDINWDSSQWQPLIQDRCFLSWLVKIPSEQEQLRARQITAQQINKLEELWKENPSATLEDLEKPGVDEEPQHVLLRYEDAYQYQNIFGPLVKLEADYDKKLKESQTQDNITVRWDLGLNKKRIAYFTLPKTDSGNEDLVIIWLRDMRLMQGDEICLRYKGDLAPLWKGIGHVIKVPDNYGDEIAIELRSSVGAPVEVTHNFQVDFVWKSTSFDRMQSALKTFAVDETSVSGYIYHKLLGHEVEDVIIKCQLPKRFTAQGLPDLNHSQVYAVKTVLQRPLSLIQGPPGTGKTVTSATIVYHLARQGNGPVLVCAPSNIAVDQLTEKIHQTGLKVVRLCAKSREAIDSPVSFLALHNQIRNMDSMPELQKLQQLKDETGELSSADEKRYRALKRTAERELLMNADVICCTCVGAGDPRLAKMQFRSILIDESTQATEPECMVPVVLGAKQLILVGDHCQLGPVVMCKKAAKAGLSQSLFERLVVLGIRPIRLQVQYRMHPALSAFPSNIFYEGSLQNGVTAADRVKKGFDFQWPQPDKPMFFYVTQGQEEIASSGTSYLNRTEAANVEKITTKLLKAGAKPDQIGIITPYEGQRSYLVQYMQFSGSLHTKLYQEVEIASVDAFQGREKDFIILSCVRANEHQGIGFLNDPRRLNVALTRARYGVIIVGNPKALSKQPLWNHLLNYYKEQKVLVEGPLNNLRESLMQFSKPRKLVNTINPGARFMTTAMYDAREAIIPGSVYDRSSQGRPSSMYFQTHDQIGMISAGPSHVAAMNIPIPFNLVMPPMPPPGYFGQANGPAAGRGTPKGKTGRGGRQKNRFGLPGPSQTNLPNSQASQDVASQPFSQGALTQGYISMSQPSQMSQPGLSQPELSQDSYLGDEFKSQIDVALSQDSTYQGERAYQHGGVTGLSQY

[11] = target: CSL (RBP-Jκ), endogenous (human (endogenous in HDFs)) (UniProt Q06330); assay: as above
[12] = target: FLAG-tagged CSL BTD (166–334) (human) (UniProt Q06330); assay: co-IP; HEK293T cells expressing FLAG-tagged CSL FL, BTD or point mutants plus/minus FL UPF1 or FL Ku70; anti-FLAG M2 magnetic beads, immunoblotting

Row | binding [6] | binding [8] | binding [9] | binding [10] | binding [11] | Substance | other results
1 | – | – | – | – | – | FLAG-tagged full length (FL) CSL (from UniProt Q06330 1-500) | binding [1]: binds; binding [2]: binds; binding [3]: binds
2 | binds | – | – | – | – | MYC-tagged full length (FL) Ku70 (from UniProt P12956 1-609) | binding [4]: binds; binding [5]: binds
3 | – | – | – | – | – | purified recombinant Ku70 (from UniProt P12956 1-609) | binding [7]: binds
4 | – | binds | binds | binds | binds | Ku70, endogenous (from UniProt P12956 1-609) | –
5 | binds | – | – | – | – | Ku70 in HEK293T cells (Fig. 8c) (from UniProt P12956 1-609) | binding [12]: binds
6 | – | binds | binds | binds | binds | Ku80, endogenous (from UniProt P13010 1-732) | –
